Laboratory results published in the supplement of paper PMC6411743.
± gives the standard deviation of the averaged measurements. The list shows a part of the results, in another mix than the full data. Small differences around the control level are noise.

Amino acid sequences for entries named in this document (tags omitted). A change or cut given only in a name is not applied to a line headed by its entry.
UniProt P36543, whole entry: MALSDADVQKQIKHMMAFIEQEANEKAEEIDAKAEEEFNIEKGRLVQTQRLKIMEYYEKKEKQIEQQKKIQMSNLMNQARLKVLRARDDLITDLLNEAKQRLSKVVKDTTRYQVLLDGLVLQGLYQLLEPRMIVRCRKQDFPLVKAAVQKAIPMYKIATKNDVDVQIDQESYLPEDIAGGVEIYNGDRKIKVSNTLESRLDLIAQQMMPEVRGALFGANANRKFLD
UniProt P36404: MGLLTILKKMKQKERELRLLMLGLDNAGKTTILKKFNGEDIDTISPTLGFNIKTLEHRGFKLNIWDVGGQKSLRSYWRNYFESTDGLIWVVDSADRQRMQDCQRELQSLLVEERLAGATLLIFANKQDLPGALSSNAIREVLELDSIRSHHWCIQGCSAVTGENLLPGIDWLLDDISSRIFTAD
UniProt P20338: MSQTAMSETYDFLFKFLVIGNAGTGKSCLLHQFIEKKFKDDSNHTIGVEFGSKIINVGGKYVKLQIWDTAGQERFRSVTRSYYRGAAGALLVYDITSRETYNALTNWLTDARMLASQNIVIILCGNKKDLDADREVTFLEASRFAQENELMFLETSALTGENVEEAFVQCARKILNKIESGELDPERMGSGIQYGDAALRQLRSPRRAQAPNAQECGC
UniProt P36915, whole entry: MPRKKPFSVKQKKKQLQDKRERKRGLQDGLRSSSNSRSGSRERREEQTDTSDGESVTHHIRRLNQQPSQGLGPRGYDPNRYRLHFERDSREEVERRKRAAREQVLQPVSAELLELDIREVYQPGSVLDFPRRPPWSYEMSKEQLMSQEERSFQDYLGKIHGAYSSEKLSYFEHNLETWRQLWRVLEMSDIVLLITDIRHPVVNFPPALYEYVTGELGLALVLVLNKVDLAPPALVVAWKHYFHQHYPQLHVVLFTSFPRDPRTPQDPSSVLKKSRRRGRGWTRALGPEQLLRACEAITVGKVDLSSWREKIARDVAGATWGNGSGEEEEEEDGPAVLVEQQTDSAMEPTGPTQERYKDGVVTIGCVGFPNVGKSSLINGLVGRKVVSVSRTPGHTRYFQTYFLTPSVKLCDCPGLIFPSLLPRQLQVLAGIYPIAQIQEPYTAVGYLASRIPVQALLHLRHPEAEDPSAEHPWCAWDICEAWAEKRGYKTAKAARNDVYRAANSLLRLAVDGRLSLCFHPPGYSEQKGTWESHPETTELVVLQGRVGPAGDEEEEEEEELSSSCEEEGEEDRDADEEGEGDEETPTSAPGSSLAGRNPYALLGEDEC
UniProt P35249, whole entry: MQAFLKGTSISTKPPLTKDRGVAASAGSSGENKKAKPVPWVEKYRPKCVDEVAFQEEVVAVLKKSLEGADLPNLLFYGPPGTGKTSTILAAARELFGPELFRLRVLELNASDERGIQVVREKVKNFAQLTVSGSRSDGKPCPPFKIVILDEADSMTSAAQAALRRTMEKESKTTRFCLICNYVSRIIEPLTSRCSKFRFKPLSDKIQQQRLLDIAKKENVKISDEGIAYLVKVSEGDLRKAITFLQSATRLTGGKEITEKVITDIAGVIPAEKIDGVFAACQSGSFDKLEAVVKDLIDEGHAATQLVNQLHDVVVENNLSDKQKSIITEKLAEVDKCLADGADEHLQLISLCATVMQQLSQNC
UniProt P34059: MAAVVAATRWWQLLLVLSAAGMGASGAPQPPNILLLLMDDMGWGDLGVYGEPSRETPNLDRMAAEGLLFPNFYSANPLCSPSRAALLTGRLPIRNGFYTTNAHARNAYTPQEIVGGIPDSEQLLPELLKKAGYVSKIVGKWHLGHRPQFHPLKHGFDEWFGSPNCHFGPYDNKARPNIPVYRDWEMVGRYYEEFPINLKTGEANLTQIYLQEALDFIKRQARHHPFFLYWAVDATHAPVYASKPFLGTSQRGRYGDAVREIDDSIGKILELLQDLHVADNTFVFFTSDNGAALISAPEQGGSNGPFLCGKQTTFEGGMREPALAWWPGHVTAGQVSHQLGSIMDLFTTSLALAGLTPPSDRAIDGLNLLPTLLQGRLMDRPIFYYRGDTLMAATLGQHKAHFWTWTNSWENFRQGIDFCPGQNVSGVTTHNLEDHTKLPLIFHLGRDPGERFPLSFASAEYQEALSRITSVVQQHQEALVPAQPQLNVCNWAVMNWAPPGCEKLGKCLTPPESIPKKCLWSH
UniProt P24723, whole entry, looked up: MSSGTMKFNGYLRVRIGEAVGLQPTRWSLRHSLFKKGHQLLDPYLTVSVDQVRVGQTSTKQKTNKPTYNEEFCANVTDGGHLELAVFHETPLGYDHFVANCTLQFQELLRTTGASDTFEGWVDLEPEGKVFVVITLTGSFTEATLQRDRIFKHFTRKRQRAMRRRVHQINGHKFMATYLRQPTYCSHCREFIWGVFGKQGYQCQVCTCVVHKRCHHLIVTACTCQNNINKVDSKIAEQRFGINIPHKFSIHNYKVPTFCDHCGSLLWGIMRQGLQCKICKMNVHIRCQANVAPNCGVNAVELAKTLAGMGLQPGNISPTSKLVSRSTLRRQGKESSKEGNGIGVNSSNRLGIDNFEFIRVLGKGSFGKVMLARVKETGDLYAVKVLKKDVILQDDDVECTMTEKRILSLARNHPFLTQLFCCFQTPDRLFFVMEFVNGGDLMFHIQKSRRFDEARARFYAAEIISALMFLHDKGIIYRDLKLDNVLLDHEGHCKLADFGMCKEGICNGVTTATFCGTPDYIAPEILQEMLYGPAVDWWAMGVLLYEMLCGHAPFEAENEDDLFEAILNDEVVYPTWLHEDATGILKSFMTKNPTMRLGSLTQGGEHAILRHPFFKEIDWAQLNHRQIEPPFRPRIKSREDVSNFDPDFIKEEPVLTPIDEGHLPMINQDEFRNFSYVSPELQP
UniProt P23368: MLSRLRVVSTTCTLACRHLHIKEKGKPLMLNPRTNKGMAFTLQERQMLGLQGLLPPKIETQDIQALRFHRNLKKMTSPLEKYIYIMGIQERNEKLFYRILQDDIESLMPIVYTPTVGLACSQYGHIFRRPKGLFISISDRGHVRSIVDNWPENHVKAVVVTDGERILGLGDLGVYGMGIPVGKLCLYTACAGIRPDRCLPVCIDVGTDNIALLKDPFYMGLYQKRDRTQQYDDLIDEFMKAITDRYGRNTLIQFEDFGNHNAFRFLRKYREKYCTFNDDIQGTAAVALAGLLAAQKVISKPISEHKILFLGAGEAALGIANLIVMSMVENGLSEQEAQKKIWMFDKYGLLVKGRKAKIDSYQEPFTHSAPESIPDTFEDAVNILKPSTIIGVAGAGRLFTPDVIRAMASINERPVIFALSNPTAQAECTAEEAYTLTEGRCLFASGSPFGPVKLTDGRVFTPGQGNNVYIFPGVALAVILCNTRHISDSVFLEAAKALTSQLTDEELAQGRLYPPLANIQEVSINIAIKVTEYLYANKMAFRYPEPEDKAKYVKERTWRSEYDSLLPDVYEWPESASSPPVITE
UniProt P17029: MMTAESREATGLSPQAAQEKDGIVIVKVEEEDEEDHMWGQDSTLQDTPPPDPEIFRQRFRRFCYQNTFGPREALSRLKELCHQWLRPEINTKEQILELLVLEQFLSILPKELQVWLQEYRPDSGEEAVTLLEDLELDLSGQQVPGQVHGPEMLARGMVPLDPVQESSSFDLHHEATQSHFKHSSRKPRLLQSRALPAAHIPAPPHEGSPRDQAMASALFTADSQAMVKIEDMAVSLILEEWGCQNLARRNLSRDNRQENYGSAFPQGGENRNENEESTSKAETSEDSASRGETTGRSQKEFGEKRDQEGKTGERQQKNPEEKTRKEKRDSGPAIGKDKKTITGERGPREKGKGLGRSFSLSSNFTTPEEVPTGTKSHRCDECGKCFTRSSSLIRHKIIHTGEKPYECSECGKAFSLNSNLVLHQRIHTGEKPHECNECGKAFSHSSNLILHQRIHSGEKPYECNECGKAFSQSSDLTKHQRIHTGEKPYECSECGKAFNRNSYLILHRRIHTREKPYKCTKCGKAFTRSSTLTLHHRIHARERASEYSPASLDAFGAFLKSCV
UniProt P34897: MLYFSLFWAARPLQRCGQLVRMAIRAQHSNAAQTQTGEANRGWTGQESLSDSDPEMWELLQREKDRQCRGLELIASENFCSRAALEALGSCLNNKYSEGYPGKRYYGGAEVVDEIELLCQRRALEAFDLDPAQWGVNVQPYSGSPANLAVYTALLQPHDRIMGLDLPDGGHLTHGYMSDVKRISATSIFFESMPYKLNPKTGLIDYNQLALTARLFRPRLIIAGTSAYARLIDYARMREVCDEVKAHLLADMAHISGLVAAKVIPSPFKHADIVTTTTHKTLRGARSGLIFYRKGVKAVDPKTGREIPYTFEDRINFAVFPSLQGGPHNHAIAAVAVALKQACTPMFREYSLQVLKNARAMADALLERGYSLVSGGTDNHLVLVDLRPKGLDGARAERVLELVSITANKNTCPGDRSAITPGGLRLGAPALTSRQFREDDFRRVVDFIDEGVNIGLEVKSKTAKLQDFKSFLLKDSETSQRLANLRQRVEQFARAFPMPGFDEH
UniProt P35270: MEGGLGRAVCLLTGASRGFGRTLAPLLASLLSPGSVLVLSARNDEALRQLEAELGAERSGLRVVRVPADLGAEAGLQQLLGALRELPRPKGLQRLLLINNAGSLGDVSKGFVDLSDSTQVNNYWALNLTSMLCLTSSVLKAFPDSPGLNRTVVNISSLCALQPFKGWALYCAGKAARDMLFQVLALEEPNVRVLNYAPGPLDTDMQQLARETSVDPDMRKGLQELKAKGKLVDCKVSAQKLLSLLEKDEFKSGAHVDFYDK
UniProt P24752: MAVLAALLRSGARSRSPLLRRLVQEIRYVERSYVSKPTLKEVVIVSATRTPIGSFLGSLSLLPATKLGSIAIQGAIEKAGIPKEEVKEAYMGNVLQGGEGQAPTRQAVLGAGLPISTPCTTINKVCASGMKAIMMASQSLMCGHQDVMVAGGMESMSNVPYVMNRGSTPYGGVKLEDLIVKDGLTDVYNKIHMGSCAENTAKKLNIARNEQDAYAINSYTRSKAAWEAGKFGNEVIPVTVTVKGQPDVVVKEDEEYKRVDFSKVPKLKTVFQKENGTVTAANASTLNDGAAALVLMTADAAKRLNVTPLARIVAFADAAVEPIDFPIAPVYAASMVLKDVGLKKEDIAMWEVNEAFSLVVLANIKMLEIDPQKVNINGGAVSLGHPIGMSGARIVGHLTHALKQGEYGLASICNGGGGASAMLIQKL
UniProt P20933: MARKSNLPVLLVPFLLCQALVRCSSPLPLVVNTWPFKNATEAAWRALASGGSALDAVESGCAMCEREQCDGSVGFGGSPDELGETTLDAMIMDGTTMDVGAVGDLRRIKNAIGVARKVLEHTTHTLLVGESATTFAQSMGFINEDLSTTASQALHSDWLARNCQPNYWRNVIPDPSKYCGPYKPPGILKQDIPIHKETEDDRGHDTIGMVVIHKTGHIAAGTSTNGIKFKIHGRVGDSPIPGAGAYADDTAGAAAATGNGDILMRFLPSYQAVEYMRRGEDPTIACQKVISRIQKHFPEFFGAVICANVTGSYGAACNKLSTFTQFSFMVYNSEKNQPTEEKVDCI
UniProt P34947, whole entry, looked up: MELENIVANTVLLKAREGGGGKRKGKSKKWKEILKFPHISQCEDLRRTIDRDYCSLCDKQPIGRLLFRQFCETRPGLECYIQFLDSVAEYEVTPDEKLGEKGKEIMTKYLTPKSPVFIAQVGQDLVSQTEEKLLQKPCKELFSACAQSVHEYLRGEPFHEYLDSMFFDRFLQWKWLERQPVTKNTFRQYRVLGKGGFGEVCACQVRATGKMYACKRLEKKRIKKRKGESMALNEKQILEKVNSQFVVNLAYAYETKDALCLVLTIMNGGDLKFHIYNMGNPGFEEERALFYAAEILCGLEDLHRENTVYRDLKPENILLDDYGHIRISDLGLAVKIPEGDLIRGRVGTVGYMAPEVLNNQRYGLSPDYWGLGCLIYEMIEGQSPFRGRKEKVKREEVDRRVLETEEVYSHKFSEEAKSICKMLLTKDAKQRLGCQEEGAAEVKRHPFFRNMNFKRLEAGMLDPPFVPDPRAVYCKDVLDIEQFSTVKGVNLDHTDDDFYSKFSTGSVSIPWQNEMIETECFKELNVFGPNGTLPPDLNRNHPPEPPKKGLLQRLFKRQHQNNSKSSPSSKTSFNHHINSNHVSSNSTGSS
UniProt P31751: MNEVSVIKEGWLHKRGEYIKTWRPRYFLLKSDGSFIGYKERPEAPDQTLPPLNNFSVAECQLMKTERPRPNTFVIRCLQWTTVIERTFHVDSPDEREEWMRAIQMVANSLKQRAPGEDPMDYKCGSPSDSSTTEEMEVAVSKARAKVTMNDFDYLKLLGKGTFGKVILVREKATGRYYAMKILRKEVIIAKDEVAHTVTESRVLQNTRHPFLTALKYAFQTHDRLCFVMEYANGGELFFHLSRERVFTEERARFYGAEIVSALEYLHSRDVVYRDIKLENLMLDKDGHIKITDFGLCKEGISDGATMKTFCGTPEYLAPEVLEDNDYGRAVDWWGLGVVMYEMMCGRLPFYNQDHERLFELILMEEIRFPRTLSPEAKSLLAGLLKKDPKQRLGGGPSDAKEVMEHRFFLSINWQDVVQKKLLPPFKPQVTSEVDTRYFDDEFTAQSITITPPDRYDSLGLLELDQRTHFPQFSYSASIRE

compound: Nc1ncnc2c1ncn2[C@@H]1O[C@H](COP(=O)(O)OP(=O)(O)NP(=O)(O)O)[C@@H](O)[C@H]1O [adenylyl imidodiphosphate]; experiment: NP40-soluble protein abundance relative to vehicle (solubility fold change) (ratio); higher = more soluble protein in presence of AMP-PNP; conditions: concentration: 0.1mM
Summary of the method: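 Each value is a fold change relative to the detergent-processed vehicle, calculated per replicate from vsn-normalised intensities. Jurkat crude lysate received eight concentrations (0.1 to 10 mM) for 10 min at room temperature and 3 min at 37 °C, then was solubilised in 0.8% NP40 with benzonase (60 min, 4 °C). The ultracentrifuged supernatant was TMT-labelled and run by LC-MS/MS in three independent experiments.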

| Target | NP40-soluble protein abundance |
| --- | --- |
| UniProt P18206 and related entries | 0.963 ± 0.017 |
| PPP2R1A (UniProt P30153) | 1.01 ± 0.032 |
| UniProt P21359 and related entries | 1.03 ± 0.023 |
| ICAM3 (UniProt P32942) | 0.963 ± 0.024 |
| JUND (UniProt P17535) | 0.972 ± 0.052 |
| ATP6V1E1 (UniProt P36543) | 1 ± 0.0089 |
| UniProt P24539 and related entries | 1.02 ± 0.072 |
| ARL2 (UniProt P36404) | 1 ± 0.025 |
| RAB4A (UniProt P20338) | 1.023 ± 0.0026 |
| GNL1 (UniProt P36915) | 1.02 ± 0.05 |
| UniProt P36542 | 0.996 ± 0.05 |
| UniProt P18859 and related entries | 0.981 ± 0.098 |
| UniProt P28749 and related entries | 0.977 ± 0.019 |
| RFC4 (UniProt P35249) | 1.02 ± 0.021 |
| GALNS (UniProt P34059) | 0.948 ± 0.033 |
| PRKCH (UniProt P24723) | 1.02 ± 0.013 |
| ME2 (UniProt P23368) | 1.03 ± 0.047 |
| UniProt P23511 and related entries | 1.2 ± 0.42 |
| TFE3 (UniProt P19532) | 0.991 ± 0.025 |

| Target | NP40-soluble protein abundance |
| --- | --- |
| ZKSCAN1 (UniProt P17029) | 1 ± 0.014 |
| UniProt P34897 and related entries | 1.03 ± 0.016 |
| AKAP5 (UniProt P24588) | 0.972 ± 0.022 |
| UniProt P30520 | 0.978 ± 0.017 |
| SPR (UniProt P35270) | 0.985 ± 0.043 |
| POLR2E (UniProt P19388) | 1.04 ± 0.031 |
| UniProt P25685 and related entries | 1.03 ± 0.029 |
| GLDC (UniProt P23378) | 0.982 ± 0.039 |
| UniProt P29353 and related entries | 0.992 ± 0.038 |
| ACAT1 (UniProt P24752) | 0.961 ± 0.0098 |
| HIBADH (UniProt P31937) | 0.99 ± 0.023 |
| AGA (UniProt P20933) | 1.014 ± 0.0021 |
| GRK5 (UniProt P34947) | 0.996 ± 0.033 |
| DDX6 (UniProt P26196) | 1.01 ± 0.0011 |
| PPIB (UniProt P23284) | 0.977 ± 0.024 |
| AKT2 (UniProt P31751) | 0.972 ± 0.027 |
| ABCC1 (UniProt P33527) | 0.997 ± 0.012 |
| UniProt P20290 and related entries | 0.974 ± 0.063 |
| HSPA9 (UniProt P38646) | 0.936 ± 0.079 |

same assay, conditions: concentration: 0.5mM

| Target | NP40-soluble protein abundance |
| --- | --- |
| UniProt P18206 and related entries | 0.977 ± 0.041 |
| PPP2R1A (UniProt P30153) | 0.988 ± 0.011 |
| UniProt P21359 and related entries | 0.965 ± 0.058 |
| ICAM3 (UniProt P32942) | 1.01 ± 0.059 |
| JUND (UniProt P17535) | 0.982 ± 0.031 |
| ATP6V1E1 (UniProt P36543) | 1.003 ± 0.0097 |
| UniProt P24539 and related entries | 1.01 ± 0.067 |
| ARL2 (UniProt P36404) | 1.01 ± 0.041 |
| RAB4A (UniProt P20338) | 1.02 ± 0.027 |
| GNL1 (UniProt P36915) | 1.02 ± 0.061 |
| UniProt P36542 | 1.03 ± 0.022 |
| UniProt P18859 and related entries | 0.966 ± 0.046 |
| UniProt P28749 and related entries | 0.932 ± 0.04 |
| RFC4 (UniProt P35249) | 1.04 ± 0.032 |
| GALNS (UniProt P34059) | 0.974 ± 0.023 |
| PRKCH (UniProt P24723) | 1 ± 0.012 |
| ME2 (UniProt P23368) | 0.979 ± 0.11 |
| UniProt P23511 and related entries | 0.952 ± 0.039 |
| TFE3 (UniProt P19532) | 0.97413 ± 0.00073 |

| Target | NP40-soluble protein abundance |
| --- | --- |
| ZKSCAN1 (UniProt P17029) | 1 ± 0.024 |
| UniProt P34897 and related entries | 1.01 ± 0.016 |
| AKAP5 (UniProt P24588) | 0.991 ± 0.041 |
| UniProt P30520 | 0.973 ± 0.013 |
| SPR (UniProt P35270) | 1.02 ± 0.014 |
| POLR2E (UniProt P19388) | 1 ± 0.041 |
| UniProt P25685 and related entries | 1.05 ± 0.035 |
| GLDC (UniProt P23378) | 0.961 ± 0.021 |
| UniProt P29353 and related entries | 1.02 ± 0.062 |
| ACAT1 (UniProt P24752) | 1.02 ± 0.026 |
| HIBADH (UniProt P31937) | 1.02 ± 0.04 |
| AGA (UniProt P20933) | 1.01 ± 0.028 |
| GRK5 (UniProt P34947) | 1.02 ± 0.014 |
| DDX6 (UniProt P26196) | 1.01 ± 0.029 |
| PPIB (UniProt P23284) | 1.02 ± 0.028 |
| AKT2 (UniProt P31751) | 0.962 ± 0.016 |
| ABCC1 (UniProt P33527) | 0.99 ± 0.039 |
| UniProt P20290 and related entries | 0.997 ± 0.045 |
| HSPA9 (UniProt P38646) | 1.01 ± 0.092 |
